The list shows only some results of the screen, not a fair sample: it covers a few groups of compounds. Other doses and runs of a compound may be missing. T/C gives the treated animals as a percentage of the vehicle group. Some doses have a count of surviving animals in place of a T/C: the source holds a T/C of zero for them, seemingly a mark for toxic or unscored doses. Some survivor counts are full or nearly so, which does not show that the dose was tolerated: survival well below the control is almost never listed, so the zero probably covers shortened survival too. Counts of survivors are from the toxicity check (mostly the fifth day) where no day follows; animals may have died later. Schedules are NCI's codes, taken here to give the interval after Q, in days (D) or hours (H), and the number of doses after X. For survival time, the PubChem record calls one and a half times the control and up active, and a quarter to a half above the control has no call in these data; cut-offs in other NCI protocols can differ. Some entries hold several experiments; the results are listed from low to high. Some T/C values are marked as having no survivor count here; that says nothing about deaths at the dose. Some complexes appear as separate parts, the way the source draws them; their charges need not add up. Some T/C values are followed by the survivors on the day toxicity was checked, most often the fifth; where neither a count nor a note follows, no animal had died by that day.
Test system: P388 leukemia ip, CD2F1 mice, survival T/C
Experiment: NCI In Vivo Anticancer Drug Screen. Data for tumor model P388 Leukemia (intraperitoneal) in CD2F1 (CDF1) mice
Settings: T/C endpoint: median survival time, higher T/C = longer survival
[1] = dose: 100.0 mg/kg/injection, schedule: Q04DX003 (ip), vehicle: saline with Tween-80
[2] = dose: 200.0 mg/kg/injection, schedule: Q04DX003 (ip), vehicle: saline with Tween-80
[3] = dose: 400.0 mg/kg/injection, schedule: Q04DX003 (ip), vehicle: saline with Tween-80
[4] = dose: 50.0 mg/kg/injection, schedule: Q01DX009 (ip), vehicle: saline with Tween-80
[5] = dose: 100.0 mg/kg/injection, schedule: Q01DX009 (ip), vehicle: saline with Tween-80
[6] = dose: 200.0 mg/kg/injection, schedule: Q01DX009 (ip), vehicle: saline with Tween-80
[7] = dose: 50.0 mg/kg/injection, schedule: Q01DX009 (ip), vehicle: saline
[8] = dose: 100.0 mg/kg/injection, schedule: Q01DX009 (ip), vehicle: saline
[9] = dose: 200.0 mg/kg/injection, schedule: Q01DX009 (ip), vehicle: saline

With O=C(O)COc1cccc(CN(CCCl)CCCl)c1 the T/C (dose: 0.15 mg/kg/injection, schedule: Q01DX009 (ip), vehicle: saline) was 112 % of control, the T/C (dose: 0.15 mg/kg/injection, schedule: Q04DX003 (ip), vehicle: saline with Tween-80) was 140 % of control and the T/C (dose: 0.3 mg/kg/injection, schedule: Q01DX009 (ip), vehicle: saline) was 120 % of control. For the same compound, the T/C (dose: 0.3 mg/kg/injection, schedule: Q04DX003 (ip), vehicle: saline with Tween-80) was 150 % of control, the T/C (dose: 0.6 mg/kg/injection, schedule: Q01DX009 (ip), vehicle: saline) was 141 % of control and the T/C (dose: 0.6 mg/kg/injection, schedule: Q04DX003 (ip), vehicle: saline with Tween-80) was 168 % of control [5 of 6 alive]. For the same compound, the survivor count (dose: 4.0 mg/kg/injection, schedule: Q04DX003 (ip), vehicle: saline) was 4 of 6, the T/C (dose: 5.0 mg/kg/injection, schedule: Q04DX003 (ip), vehicle: saline) was 168 % of control and the survivor count (dose: 6.0 mg/kg/injection, schedule: Q04DX003 (ip), vehicle: saline) was 1 of 6. The survivor count (dose: 9.0 mg/kg/injection, schedule: Q04DX003 (ip), vehicle: saline) was 0 of 6, the survivor count (dose: 10.0 mg/kg/injection, schedule: Q04DX003 (ip), vehicle: saline) was 6 of 6 and the survivor count (dose: 20.0 mg/kg/injection, schedule: Q04DX003 (ip), vehicle: saline) was 3 of 6. For the same compound, the survivor count [1] was 0 of 6, the survivor count [2] was 0 of 6 and the survivor count [3] was 0 of 6.

With ClC1CSC1 the T/C (dose: 25.0 mg/kg/injection, schedule: Q01DX009 (ip), vehicle: other) was 95 % of control, the T/C (dose: 25.0 mg/kg/injection, schedule: Q01DX009 (ip), vehicle: saline sonified) was 104 % of control and the T/C (dose: 25.0 mg/kg/injection, schedule: Q01DX009 (ip), vehicle: saline with Tween-80) was 95 % of control. The survivor count (dose: 50.0 mg/kg/injection, schedule: Q01DX009 (ip), vehicle: other) was 4 of 6, the T/C (dose: 50.0 mg/kg/injection, schedule: Q01DX009 (ip), vehicle: saline sonified) was 95 % of control and the T/C [4] was 95 % of control. For the same compound, the T/C (dose: 100.0 mg/kg/injection, schedule: Q01DX009 (ip), vehicle: other) was 95 % of control [4 of 6 alive], the T/C (dose: 100.0 mg/kg/injection, schedule: Q01DX009 (ip), vehicle: saline sonified) was 95 % of control and the T/C [5] was 95 % of control. The survivor count (dose: 200.0 mg/kg/injection, schedule: Q01DX009 (ip), vehicle: other) was 4 of 6, the T/C (dose: 200.0 mg/kg/injection, schedule: Q01DX009 (ip), vehicle: saline sonified) was 90 % of control [4 of 6 alive] and the survivor count [6] was 4 of 6. For the same compound, the survivor count (dose: 400.0 mg/kg/injection, schedule: Q01DX009 (ip), vehicle: other) was 0 of 6, the survivor count (dose: 400.0 mg/kg/injection, schedule: Q01DX009 (ip), vehicle: saline sonified) was 0 of 6 and the survivor count (dose: 400.0 mg/kg/injection, schedule: Q01DX009 (ip), vehicle: saline with Tween-80) was 1 of 6.

For CN=C(NP(=O)(OC)OC)OC, the T/C (dose: 12.5 mg/kg/injection, schedule: Q01DX009 (ip), vehicle: water) was 90 % of control, the T/C (dose: 25.0 mg/kg/injection, schedule: Q01DX009 (ip), vehicle: water) was 90 % of control and the T/C (dose: 50.0 mg/kg/injection, schedule: Q01DX009 (ip), vehicle: water) was 113 % of control. For the same compound, the T/C (dose: 100.0 mg/kg/injection, schedule: Q01DX009 (ip), vehicle: water) was 111 % of control.

In the case of CCSC(=O)OCC([N+](=O)[O-])([N+](=O)[O-])[N+](=O)[O-], the T/C (dose: 100.0 mg/kg/injection, schedule: Q04DX003 (ip), vehicle: saline) is reported as 97 % of control, the T/C (dose: 200.0 mg/kg/injection, schedule: Q04DX003 (ip), vehicle: saline) is reported as 103 % of control and the T/C (dose: 400.0 mg/kg/injection, schedule: Q04DX003 (ip), vehicle: saline) is reported as 100 % of control.

For CCOP(=O)(O)CC.[Th], the T/C [4] was 100 % of control [survivor count not shown], the T/C [5] was 105 % of control [survivor count not shown] and the T/C [6] was 107 % of control [survivor count not shown].

With ClC1CCC2C=CCC1S2 (stereo not given) the T/C (dose: 50.0 mg/kg/injection, schedule: Q01DX009 (ip), vehicle: distilled water + Tween-80) was 110 % of control.

In the case of CCOC(=O)C(CCSC)NC(=O)OCCNCCCl (stereo not given), the T/C (dose: 12.5 mg/kg/injection, schedule: Q01DX009 (ip), vehicle: saline) is reported as 145 % of control, the T/C (dose: 22.0 mg/kg/injection, schedule: Q01DX009 (ip), vehicle: saline) is reported as 127 % of control and the T/C (dose: 25.0 mg/kg/injection, schedule: Q01DX009 (ip), vehicle: saline) is reported as 127 % of control. For the same compound, the T/C (dose: 33.0 mg/kg/injection, schedule: Q01DX009 (ip), vehicle: saline) was 131 % of control, the T/C [7] was 131 and 159 % of control and the T/C (dose: 75.0 mg/kg/injection, schedule: Q01DX009 (ip), vehicle: saline) was 145 % of control. The survivor count [8] was 3 of 6, the T/C [1] was 122 % of control and the survivor count [2] was 3 of 6. For the same compound, the survivor count [3] was 0 of 6.

In the case of CC(C)OP(C)(=O)OC(C)C.CC(C)OP(C)(=O)OC(C)C.CC(C)OP(C)(=O)OC(C)C.CC(C)OP(C)(=O)OC(C)C.[Mn+2].[O-][Cl+3]([O-])([O-])O, the T/C [7] is reported as 111 % of control [survivor count not shown], the T/C [8] is reported as 120 % of control [survivor count not shown] and the T/C [9] is reported as 116 % of control [survivor count not shown].

For O=C(CCC([N+](=O)[O-])([N+](=O)[O-])[N+](=O)[O-])c1ccccc1, the T/C [8] was 111 % of control, the T/C [9] was 101 % of control [5 of 6 alive] and the T/C (dose: 400.0 mg/kg/injection, schedule: Q01DX009 (ip), vehicle: saline) was 111 % of control [5 of 6 alive].

For O=P1(Cl)OC(c2ccc(Cl)cc2Cl)=CCN1c1ccc(Cl)cc1 (stereo not given), the T/C (dose: 25.0 mg/kg/injection, schedule: Q01DX005 (ip), vehicle: saline with Tween-80) was 104 % of control, the T/C (dose: 50.0 mg/kg/injection, schedule: Q01DX005 (ip), vehicle: saline with Tween-80) was 105 % of control and the T/C (dose: 100.0 mg/kg/injection, schedule: Q01DX005 (ip), vehicle: saline with Tween-80) was 113 % of control.

For O=C1/C(=C/N(CCCl)CCCl)COc2ccccc21, the T/C (dose: 3.13 mg/kg/injection, schedule: Q01DX005 (ip), vehicle: Klucel (hydroxypropylcellulose) (HPC)) was 100 % of control, the T/C (dose: 6.25 mg/kg/injection, schedule: Q01DX005 (ip), vehicle: Klucel (hydroxypropylcellulose) (HPC)) was 101 % of control and the T/C (dose: 12.5 mg/kg/injection, schedule: Q01DX005 (ip), vehicle: Klucel (hydroxypropylcellulose) (HPC)) was 101 % of control. The T/C (dose: 25.0 mg/kg/injection, schedule: Q01DX005 (ip), vehicle: Klucel (hydroxypropylcellulose) (HPC)) was 100 % of control, the survivor count (dose: 25.0 mg/kg/injection, schedule: Q04DX003 (ip), vehicle: Klucel (hydroxypropylcellulose) (HPC)) was 5 of 6 and the survivor count (dose: 50.0 mg/kg/injection, schedule: Q04DX003 (ip), vehicle: Klucel (hydroxypropylcellulose) (HPC)) was 1 of 1. For the same compound, the survivor count (dose: 100.0 mg/kg/injection, schedule: Q04DX003 (ip), vehicle: Klucel (hydroxypropylcellulose) (HPC)) was 0 of 6.

With CC(C)OP(C)(=O)OC(C)C.[Cl][Nb]([Cl])([Cl])([Cl])[Cl] the T/C (dose: 100.0 mg/kg/injection, schedule: Q01DX001 (ip), vehicle: Klucel (hydroxypropylcellulose) (HPC)) was 95 % of control [survivor count not shown], the T/C (dose: 200.0 mg/kg/injection, schedule: Q01DX001 (ip), vehicle: Klucel (hydroxypropylcellulose) (HPC)) was 95 % of control [survivor count not shown] and the T/C (dose: 400.0 mg/kg/injection, schedule: Q01DX001 (ip), vehicle: Klucel (hydroxypropylcellulose) (HPC)) was 94 % of control [survivor count not shown].

Source: PubChem BioAssay AID330 (DTP/NCI, 2004)
